Data published in patent US20050130235A1.
No constants are given. Whether binding was seen depends on the method and setting. Some entries that bind do so weakly or less than the wild type.

Amino acid sequences for entries named in this document (tags omitted). Residues count along the entry.
UniProt P01012, residues 2-386: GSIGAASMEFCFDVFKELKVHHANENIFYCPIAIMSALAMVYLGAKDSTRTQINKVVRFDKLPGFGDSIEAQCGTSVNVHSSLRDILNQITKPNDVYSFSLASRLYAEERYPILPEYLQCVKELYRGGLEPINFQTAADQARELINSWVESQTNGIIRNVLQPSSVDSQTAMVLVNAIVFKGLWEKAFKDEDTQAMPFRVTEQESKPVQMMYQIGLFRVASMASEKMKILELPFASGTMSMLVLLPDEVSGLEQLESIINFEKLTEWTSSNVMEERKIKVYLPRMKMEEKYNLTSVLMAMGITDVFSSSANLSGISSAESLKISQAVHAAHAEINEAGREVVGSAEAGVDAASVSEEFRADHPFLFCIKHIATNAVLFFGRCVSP
UniProt P10968, residues 27-197: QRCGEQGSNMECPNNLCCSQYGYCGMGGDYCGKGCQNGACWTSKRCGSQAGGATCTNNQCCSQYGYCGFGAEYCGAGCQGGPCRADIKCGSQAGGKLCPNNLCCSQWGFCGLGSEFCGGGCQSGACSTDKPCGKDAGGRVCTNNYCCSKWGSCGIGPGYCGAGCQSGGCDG

Molecular target: ovalbumin (UniProt P01012)
Assay: lectin blot, WGA-HRP

wheat-germ agglutinin (WGA) lectin (from UniProt P10968 27-197)
binding: binds
